39 compounds from the supplement of paper PMC8007513 can be followed below.

SMILES strings stand for the structures. The list shows a part of the results. Single values are uncertain, as repeats are few or missing.

The test has as its system Saccharomyces cerevisiae BY4743. The test is described as follows: growth (OD600) with compound + IPBC relative to untreated control; higher = less growth inhibition. The note with it: compound concentration: 133 uM; IPBC concentration: 0.5 ug/ml; 20 h. The procedure:
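NMCCC compounds (133 uM) combined with IPBC (0.5 ug/ml) against Saccharomyces cerevisiae BY4743 in YPD, 96-well plates. Growth was read as OD600 at 20 h and expressed as % of the untreated control. Single pass.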
As to `NC(=O)c1ccc(CSc2nncn2CCc2cccs2)cc1` + CCCCNC(=O)OCC#CI [3-iodo-2-propynyl butylcarbamate (IPBC)], the growth turned out to be 93.3%.
With `CCN(CC)S(=O)(=O)c1ccc(OC)c(NC(=O)CS(=O)(=O)c2ccc(Cl)cc2)c1` + CCCCNC(=O)OCC#CI [3-iodo-2-propynyl butylcarbamate (IPBC)] the figure was 106%; with `CCn1c(SCC(=O)NCCc2cccs2)nc2cc(S(N)(=O)=O)ccc21` + CCCCNC(=O)OCC#CI [3-iodo-2-propynyl butylcarbamate (IPBC)], 98%; with `CCOC(=O)c1c(C)[nH]c(C)c1C(=O)CSc1nnc2nc(C)cc(C)n12` + CCCCNC(=O)OCC#CI [3-iodo-2-propynyl butylcarbamate (IPBC)], 88.2%.
The result for `CN1/C=C(\C=C/C1=O)/C2=N/N(C(O2)C3=CC=C(Cl)C=C3Cl)C(C)=O` (centres undefined) + CCCCNC(=O)OCC#CI [3-iodo-2-propynyl butylcarbamate (IPBC)] reads 85.7%; that for `Cc1[nH]c2ccc(C(=O)N(C)Cc3ccc(Br)s3)cc2c1C` + CCCCNC(=O)OCC#CI [3-iodo-2-propynyl butylcarbamate (IPBC)], 90.1%.
The result for `Oc1ccc(Cl)cc1-c1cc(-c2ccco2)[nH]n1` + CCCCNC(=O)OCC#CI [3-iodo-2-propynyl butylcarbamate (IPBC)] reads 3.22%; that for `COc1ccc(CN(C)C(=O)c2sc(NC(=O)c3ccco3)cc2C)c(OC)c1` + CCCCNC(=O)OCC#CI [3-iodo-2-propynyl butylcarbamate (IPBC)], 108%; that for `CC1C\N=C(\NC2=NC=CC=C2C)S1` (centres undefined) + CCCCNC(=O)OCC#CI [3-iodo-2-propynyl butylcarbamate (IPBC)], 81.1%.
As for `Cn1c(Cc2nnnn2Cc2ccc(Cl)cc2Cl)nnc1SCC(N)=O` + CCCCNC(=O)OCC#CI [3-iodo-2-propynyl butylcarbamate (IPBC)], the growth turned out to be 88.5%.
For the compound `COC(CNC(=O)CN1\N=C(\CC2=CC=NC=C2)C3=CC=CC=C3C1=O)OC` + CCCCNC(=O)OCC#CI [3-iodo-2-propynyl butylcarbamate (IPBC)], the growth came out at 82.9%.
With `COC(=O)C(O)(c1cn(C)c2ccccc12)C(F)(F)F` (centres undefined) + CCCCNC(=O)OCC#CI [3-iodo-2-propynyl butylcarbamate (IPBC)] the figure was 110%.
With `CCCNC(=O)CSc1nnc(-c2ccc(NC(C)=O)cc2)n1-c1ccccc1` + CCCCNC(=O)OCC#CI [3-iodo-2-propynyl butylcarbamate (IPBC)] the figure was 80.3%.
The result for `Cc1nc2ncnn2c(O)c1Cc1ccccc1Cl` + CCCCNC(=O)OCC#CI [3-iodo-2-propynyl butylcarbamate (IPBC)] reads 112%; that for `OC1(C\C(=N/N1C(=O)C2CC2)C3=CC=CC=C3)C(F)(F)F` (centres undefined) + CCCCNC(=O)OCC#CI [3-iodo-2-propynyl butylcarbamate (IPBC)], 101%; that for `COC(=O)c1c(C)[nH]c(C(=O)CN2CCCC2c2cccn2C)c1C` (centres undefined) + CCCCNC(=O)OCC#CI [3-iodo-2-propynyl butylcarbamate (IPBC)], 107%.
Take `COc1ncccc1C(=O)Nc1ccc(-n2cncn2)nc1` + CCCCNC(=O)OCC#CI [3-iodo-2-propynyl butylcarbamate (IPBC)]: the growth turned out to be 103%.
Turning to `COc1ccc(CNC(=O)c2cc(C(F)(F)F)nn2C)cc1OC` + CCCCNC(=O)OCC#CI [3-iodo-2-propynyl butylcarbamate (IPBC)], the growth is 99.9%.
With `COc1ccc(NC(=O)CSc2nc3nc(C)ccc3o2)c(OC)c1` + CCCCNC(=O)OCC#CI [3-iodo-2-propynyl butylcarbamate (IPBC)] the figure was 96.8%; with `COc1ccc(CN(C)C(=O)c2cc(Br)ccc2F)c(OC)c1OC` + CCCCNC(=O)OCC#CI [3-iodo-2-propynyl butylcarbamate (IPBC)], 89.2%; with `CN(Cc1cnn(-c2ccccc2)c1)C(=O)c1cc(S(=O)(=O)N(C)C)ccc1Cl` + CCCCNC(=O)OCC#CI [3-iodo-2-propynyl butylcarbamate (IPBC)], 101%.
With `COc1cccc(CNC(=O)N2CCCn3nc(C)cc32)c1` + CCCCNC(=O)OCC#CI [3-iodo-2-propynyl butylcarbamate (IPBC)] the figure was 102%; with `Cc1ccc(S(=O)(=O)N(C)c2ccc(C(=O)Nc3ncccc3O)cc2)cc1` + CCCCNC(=O)OCC#CI [3-iodo-2-propynyl butylcarbamate (IPBC)], 101%.
With `Cc1cc(C)cc(NC(=O)CSc2nc(O)c3c(n2)CCCC3)c1` + CCCCNC(=O)OCC#CI [3-iodo-2-propynyl butylcarbamate (IPBC)] the figure was 80.7%.
Take `Cc1cc(C)c2c(n1)nn1c(NCC(C)C)cc(C)nc21` + CCCCNC(=O)OCC#CI [3-iodo-2-propynyl butylcarbamate (IPBC)]: the growth stood at 104%.
`CC(C)CCNc1cc(-c2ccccc2)nc2nncn12` + CCCCNC(=O)OCC#CI [3-iodo-2-propynyl butylcarbamate (IPBC)]: the growth came to 102%.
The result for `CCN(CC)S(=O)(=O)c1cc(-c2nnc(O)c3ccccc23)ccc1C` + CCCCNC(=O)OCC#CI [3-iodo-2-propynyl butylcarbamate (IPBC)] reads 86.5%.
The result for `CCCCN1\C=N/[S](=O)(=O)C2=CC=C(C=C12)C(F)(F)F` + CCCCNC(=O)OCC#CI [3-iodo-2-propynyl butylcarbamate (IPBC)] reads 101%; that for `CN(CCOC1=CC=C(F)C=C1)CC/2=C/C(=O)N/3\C=C/C=C\C3=N2` + CCCCNC(=O)OCC#CI [3-iodo-2-propynyl butylcarbamate (IPBC)], 99%.
With `COC1=CC=C(C=C1OC)C(=O)N2CCN(CC2)C/3=C(\Cl)C(=O)N(C)/N=C3` + CCCCNC(=O)OCC#CI [3-iodo-2-propynyl butylcarbamate (IPBC)] the figure was 92.2%; with `FC(F)(F)C/1=C/N(CC2=CC=CC(=C2)[S](=O)(=O)N3CCOCC3)C(=O)/C(=C1)Cl` + CCCCNC(=O)OCC#CI [3-iodo-2-propynyl butylcarbamate (IPBC)], 98.2%.
Take `COc1ccc(Cl)cc1-c1n[nH]c(SCC(=O)NC(C)(C#N)C(C)C)n1` (centres undefined) + CCCCNC(=O)OCC#CI [3-iodo-2-propynyl butylcarbamate (IPBC)]: the growth was 109%.
With `O=S(=O)(NCc1ccccc1Cn1cccn1)c1ccccc1C(F)(F)F` + CCCCNC(=O)OCC#CI [3-iodo-2-propynyl butylcarbamate (IPBC)] the figure was 96%.
Consider `COc1ccc(NC(=O)CCc2cccs2)cc1S(=O)(=O)N1CCOCC1` + CCCCNC(=O)OCC#CI [3-iodo-2-propynyl butylcarbamate (IPBC)], for which the growth is 99.2%.
The result for `Cn1cc(S(=O)(=O)N2CCCC2)cc1C(=O)OC(c1cc(F)cc(F)c1)C(F)(F)F` (centres undefined) + CCCCNC(=O)OCC#CI [3-iodo-2-propynyl butylcarbamate (IPBC)] reads 113%.
In the case of `COc1ccc(OC)c(C(C)NC(=O)CSc2nc(C)c(C)c(C)c2C#N)c1` (centres undefined) + CCCCNC(=O)OCC#CI [3-iodo-2-propynyl butylcarbamate (IPBC)], the growth turned out to be 89.9%.
With `CC(C)CCNC(=O)CS\C1=N\C2=C(SC=C2)C(=O)N1NC(=O)C3=CC=CC=C3` + CCCCNC(=O)OCC#CI [3-iodo-2-propynyl butylcarbamate (IPBC)] the figure was 87.2%.
The result for `CC(Nc1cccc(C(N)=O)c1)C(=O)N1CCN(C(=O)c2ccco2)CC1` (centres undefined) + CCCCNC(=O)OCC#CI [3-iodo-2-propynyl butylcarbamate (IPBC)] reads 104%; that for `CC\1(C)CC2=CC=CC=C2\C(=N1)CSC3=CC=CC=C3C(O)=O` + CCCCNC(=O)OCC#CI [3-iodo-2-propynyl butylcarbamate (IPBC)], 102%.
